B1: GAL4 DNA activating domain-fused Complexin2 (protein, UniProt P84087 1-134)
chain: MDFVMKQALGGATKDMGKMLGGEEEKDPDAQKKEEERQEALRQQEEERKAKHARMEAEREKVRQQIRDKYGLKKKEEKEAEEKAALEQPCEGSLTRPKKAIPAGCGDEEEEEEESILDTVLKYLPGPLQDMFKK

No constants are given. Whether binding was seen depends on the method and setting. A result given as binding can be weak or reduced; the word gives no strength. Tags and fused reporters may be left off the sequences shown.

Among the data in PMC12595502 are binding values, retold here.

This assay addresses GAL4 DNA binding domain-fused syntaxin1 B cytosolic fraction (UniProt P61265). In words: two-hybrid.
On to “GAL4 DNA activating domain-fused Syb2 cytosolic fraction, G73W (from UniProt P63045) (domain or fragment)”, for which the binding entry is “binds”.
Turning to “GAL4 DNA activating domain-fused Syb2 cytosolic fraction, E78A (from UniProt P63045) (domain or fragment)”, the binding entry is “binds”.
On to B1, for which the binding entry is “binds”.
